# Laboratory results as given in paper PMC8048842 (Chembiochem, 2021).
# Test system: BON and BON‐SSTR2 tumors
# Experiment: Histological ex vivo examination of tumor sections (confocal laser scanning microscopy)
# Format: in vivo, mouse
# Conditions: 6 nmol i.v., mice n=3 sacrificed 5 h p.i., P=0.005 vs wild‐type
compound,measurement,value
"C[C@@H](O)[C@H](NC(=O)[C@@H]1CSSC[C@H](NC(=O)[C@@H](Cc2ccccc2)NC(=O)c2ccc3c(c2)C(C)(C)/C(=C/C=C/C2=[N+](C)c4ccc(CNC(=O)CNC(=O)CN5CCN(CC(=O)O)CCN(CC(=O)O)CCN(CC(=O)O)CC5)cc4C2(C)C)N3CCCCS(=O)(=O)[O-])C(=O)N[C@@H](Cc2ccc(O)cc2)C(=O)N[C@H](Cc2c[nH]c3ccccc23)C(=O)N[C@@H](CCCCN)C(=O)N[C@@H]([C@@H](C)O)C(=O)N1)C(=O)O [^natGa‐DOTA‐ICC‐TATE, metal not drawn]",ICC fluorescence in SSTR2‐overexpressing tumor sections (mean grey value),32.8±5.4
